PubChem BioAssay AID485349 (National Center for Advancing Translational Sciences (NCATS), 2010)
Hit rate of the full screen: of about 320,000 compounds, about 620 (0.19%) were called active. This list was built around the results that the source calls inconclusive (neither active nor inactive); the mix of calls is not that of the screen. The call rests on the fitted dose curve; in most records, active means well fitted activation curve with a large enough effect; inconclusive means small, poorly fitted or top-dose-only effect; inactive means no such curve, though single readings can be large or run the other way. A potency beside an inconclusive call is a rough fit, not a confirmed value.

Assay: qHTS Assay for Identifying a Potential Treatment of Ataxia-Telangiectasia; further: nearly all actives have a fitted effect of over 45% in size
Conditions: […] A-T fibroblasts, KAP-1 phosphorylation AlphaLISA, neocarzinostatin DNA damage 30 min before lysis; series mostly up to 57.5 µM
Method in brief: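 hTERT-immortalized A-T patient fibroblasts ([…]), 500 cells/well in OPTI-MEM, 1% FBS, got compounds for 60 min, then NCS for 30 min at 37C. Lysates were then assayed for phospho-KAP-1 by AlphaLISA (anti-pKAP1 donor, anti-KAP1 acceptor beads), 6 hr at 25C.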
Potency means the concentration at half of the fitted maximal effect.

Structure (SMILES) | Potency
COc1ccccc1NC(=O)c1ccc(-c2ccccc2F)o1 | inconclusive: 22.4 µM [activator, single point]
Oc1c(CN2CCCCC2)cc(Br)c2cccnc12 | inconclusive: 17.8 µM [activator, single point]
FC(F)Oc1ccc(-c2c[n+]3c(n2-c2ccccc2)CCCCC3)cc1 | inconclusive: 15.8 µM [activator, partial curve]
CC(C)c1cc(NCC2CCCO2)n2c(nc3ccccc32)c1C#N (configuration not stated) | inconclusive: 25.1 µM [activator, partial curve]
CCc1c(C(=O)OCc2ccccc2)[nH]c(C)c1C | inconclusive: 39.8 µM [activator, single point]
Cc1onc(-c2ccccc2Cl)c1C(=O)Nc1cccc2cccnc12 | inactive
N=c1n(CCN2CCCCC2)c2ccccc2n1CC(=O)c1ccc(Cl)c(Cl)c1 | active: 35.5 µM
COc1ccc(OC)c(NC(=O)/C=C/c2ccccc2[N+](=O)[O-])c1 | inconclusive: 6.31 µM [activator, single point]
CCN(CC)Cc1c(O)ccc2cc(-c3nc4ccccc4n3C)c(=O)oc12 | active: 22.4 µM
CCCc1cc(NCCCN(C)C)n2c(nc3ccccc32)c1C#N | inconclusive: 39.8 µM [activator, single point]
O=C(COc1ccc(NC(=O)c2ccccc2)cc1)c1ccccc1 | inactive
O=C(N/C(=C/c1cccc([N+](=O)[O-])c1)C(=O)N1CCOCC1)c1ccccc1Br | inconclusive: 2.82 µM [activator, partial curve]
Cc1ccc(C(=O)C(C)OC(=O)C2=COCCO2)cc1C (configuration not stated) | inconclusive: 39.8 µM [activator, partial curve]
CCOC(=O)c1cnc2ccc(C)cc2c1Sc1ccc(F)cc1 | inconclusive: 25.1 µM [activator, partial curve]
CC1C(c2ccccc2)N(C)C(c2ccccc2)CC1(O)c1ccc(F)cc1 (configuration not stated) | inconclusive: 39.8 µM [activator, single point]
CC(C)(C)c1cc(=O)n(-c2ccccc2)[nH]1 | inconclusive: 39.8 µM [activator, single point]
Cc1cc(C)c2oc(C(=O)N3CCN(C)CC3)cc(=O)c2c1 | inconclusive: 5.62 µM [activator, full curve, poor fit]
CC(=O)C(Sc1nn(C)c(=S)s1)C(=O)Nc1ccccc1 (configuration not stated) | inactive
COc1ccc(OC)c(/C=C/C(=O)c2ccc(Cl)cc2)c1 | inconclusive: 39.8 µM [activator, single point]
CCC(=O)Nc1cccc(C(=O)/C=C/c2ccc(F)cc2)c1 | inconclusive: 28.2 µM [activator, partial curve]
Clc1nccnc1N/N=C/c1ccc(Br)cc1 | inconclusive: 7.08 µM [activator, single point]

Structure (SMILES) | Potency
CC(=O)Nc1ccc(S(=O)(=O)NCC2(N3CCOCC3)CCCCC2)cc1 | inconclusive: 10 µM [activator, partial curve]
COc1cc(/C=C2/CC/C(=C/c3ccc(O)c(OC)c3)C2=O)ccc1O | inconclusive: 0.708 µM [activator, full curve, poor fit]
CC1CN(C(=O)/C(C#N)=C2\N=C(NC(=O)c3ccc(F)cc3)c3ccccc32)CC(C)O1 (configuration not stated) | inconclusive: 7.08 µM [activator, partial curve]
Cc1ccc(C(=O)c2c(C)oc3c2C(=O)C(=O)c2ccccc2-3)cc1 | inconclusive: 6.31 µM [activator, single point]
CN(CCOc1ccc(Cl)c(Cl)c1)Cc1ccccc1 | inconclusive: 39.8 µM [activator, single point]
O=CN1CCN(C(=O)c2cccc3c2-c2ccccc2C3=O)CC1 | inconclusive: 39.8 µM [activator, partial curve]
CCC(C)Sc1cccc(-c2nc3ccc(C)cn3c2NC2CCCCC2)c1 (configuration not stated) | active: 25.1 µM
COc1ccccc1NC(=S)N(Cc1ccccc1)Cc1ccccn1 | inactive
COc1cc(C(=O)NC(=S)Nc2ccc(Cc3ccncc3)cc2)cc(OC)c1OC | inconclusive: 3.16 µM [activator, partial curve]
O=C(CSc1ncccn1)N1CCN(S(=O)(=O)c2ccccc2)CC1 | inconclusive: 35.5 µM [activator, partial curve]
COc1cc2ccccc2cc1C(=O)Nc1ccccc1Cl | inconclusive: 22.4 µM [activator, partial curve, poor fit]
CCOc1ccc(Nc2nc(N)nc(CN(C)C3CCCCC3)n2)cc1 | inactive
COc1ccc(CCNC(=O)c2ccc3c(c2)S(=O)(=O)N=C2CCCCCN23)cc1 | inactive
CC(C)=NOc1nc(N(C)C)nc(N2CCOCC2)n1 | inconclusive: 39.8 µM [activator, partial curve, poor fit]
COCCN(C(=S)Nc1c(C)cccc1C)C(C)c1ccco1 (configuration not stated) | active: 20 µM
O=c1oc2c(O)c(O)cc3c(=O)oc4c(O)c(O)cc1c4c23 | inconclusive: 20 µM [activator, partial curve, poor fit]
O=C(Cn1ccc(C(F)(F)F)n1)Nc1cccc(S(=O)(=O)N2CCCCC2)c1 | inconclusive: 0.708 µM [activator, partial curve, poor fit]
CC(=O)c1cccc(CN2CCN(CC=C(C)C)C(CCO)C2)c1 (configuration not stated) | inconclusive: 0.631 µM [activator, full curve, poor fit]
C[C@H](NC(=O)N1CCn2c1nc1ccccc12)C(=O)NC1CC1 | inactive
COc1ccc(-c2c(-c3cc(OC)cc(OC)c3)n(C)c3ccc(-c4cccc5[nH]ccc45)cc23)cc1 | inconclusive: 44.7 µM [activator, partial curve]
Cc1cccc(-c2oc3ccccc3c2C#CCCO)c1 | inconclusive: 28.2 µM [activator, single point]

2 entries drawn at random from those above:
Structure (SMILES) | Potency
CC(=O)c1cccc(CN2CCN(CC=C(C)C)C(CCO)C2)c1 (configuration not stated) | inconclusive: 0.631 µM [activator, full curve, poor fit]
O=c1oc2c(O)c(O)cc3c(=O)oc4c(O)c(O)cc1c4c23 | inconclusive: 20 µM [activator, partial curve, poor fit]
